Measurements from article PMC6561952.
These are yes or no findings as the source states them, for the method shown. Some results given as binding are weak or reduced against the parent protein; the word gives no strength.

Protein sequences, listed by entry. Tags and fused reporters are not part of them. Lines headed by an entry give the natural chain unless they say otherwise; changes in a name come on top. Residues count along the entry.
UniProt P35613, residues 138-325: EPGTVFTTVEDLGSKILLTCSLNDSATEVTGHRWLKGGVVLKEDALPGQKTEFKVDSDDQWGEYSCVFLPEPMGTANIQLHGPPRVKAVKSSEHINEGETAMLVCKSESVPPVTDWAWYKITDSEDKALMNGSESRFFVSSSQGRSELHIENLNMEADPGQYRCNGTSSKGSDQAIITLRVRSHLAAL
UniProt Q9BWQ6: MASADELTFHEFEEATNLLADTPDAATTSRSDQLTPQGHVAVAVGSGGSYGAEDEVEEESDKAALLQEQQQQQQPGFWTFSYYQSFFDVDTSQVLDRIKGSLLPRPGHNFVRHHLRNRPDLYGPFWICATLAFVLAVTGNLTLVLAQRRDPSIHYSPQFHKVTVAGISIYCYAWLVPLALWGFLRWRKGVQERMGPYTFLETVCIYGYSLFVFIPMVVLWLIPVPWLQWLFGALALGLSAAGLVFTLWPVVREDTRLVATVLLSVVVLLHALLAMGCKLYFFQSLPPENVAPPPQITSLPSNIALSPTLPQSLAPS

Target: EpoR/LR-F3/CD147EP chimera receptor (extracellular portion of CD147 as MAPPIT bait) (UniProt P35613)
Assay: two-hybrid; analytical MAPPIT: HEK293T cells co-transfected with bait plasmid (pSEL1/CD147EP or pSEL1/CD147IP), prey plasmid (pMG1/YIPF2) or mock and the reporter pXP2d2-rPAP1-luci; EPO 5 ng/mL for 24 h or not stimulated; luciferase, positive if ES/NS > 5

binding: binds
Substance: YIPF2 prey of analytical MAPPIT (pMG1/YIPF2) (from UniProt Q9BWQ6 1-316)
